The other results are listed elsewhere or left out. Shown are side measurements of this screen, not its main read-out; they come without a call. The list favours compounds with an active or inconclusive main result. The note in brackets gives the kind of curve behind each potency; many fits are weak.
Experiment: qHTS Assay for Lipid Storage Modulators in Drosophila S3 Cells;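 for cell number change: cells counted by Cell Tracker Red CMTPX staining in the red channel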
Conditions: BODIPY lipid droplet fluorescence, 18-24 h; for cell number change: measured here: cell count max response, cells fed with added oleic acid
Procedure, shortened: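 Drosophila S3 cells got compounds at several concentrations plus oleic acid (400 uM solution). Laser-scanning cytometry with 488 nm excitation read lipid droplets at 500-530 nm and cells at 575-640 nm. Percent activity was relative to 20 uM Triacsin C.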

[1] = measured here: cell number channel AC50, cells fed with added oleic acid
[2] = measured here: lipid fluorescence (Fed channel) AC50, cells fed with added oleic acid

## O=C(CSc1nnc(C2CCCCC2)n1-c1ccccc1)NCc1ccco1
  cell number change: -38.1%
[1]
  AC50: 18.4 µM [falling, partial curve]

## CCOC(=O)c1ccc(NC(=O)NC2CCN(CC(=O)NCc3ccc4c(c3)OCO4)CC2)cc1
  cell number change: 22.8%
[2]
  AC50: 0.517 µM [rising, single point]

## CCCC(=O)O[C@H]1C[C@@H](C)N(C(=O)c2ccccc2)c2ccc(C)cc21
  cell number change: -35.2%
[1]
  AC50: 18.4 µM [falling, single point]
[2]
  AC50: 20.6 µM [falling, single point]

## COc1ccccc1N1CCN(C(=O)c2ccc(Br)s2)CC1
  cell number change: 53.1%
[1]
  AC50: 29.1 µM [rising, single point]

## Cc1ccc(COc2ccc(-c3nnco3)cc2)cc1
  cell number change: -6.65%
[2]
  AC50: 0.103 µM [falling, full curve]

## Cc1[nH]n(-c2ccccc2)c(=O)c1C=Nc1ccc(S(=O)(=O)NC(N)=O)cc1
  cell number change: -0.679%

## CCOCCCNCc1ccc(OCc2ccccc2Cl)cc1
  cell number change: 11%
[1]
  AC50: 0.00461 µM [rising, full curve, poor fit]
[2]
  AC50: 6.51 µM [rising, partial curve, poor fit]

## Cc1cc(C)n(-c2nnc(C)n2/N=C/c2cc(Br)ccc2OCc2ccccc2)n1
  cell number change: -15.8%
[2]
  AC50: 4.11 µM [rising, partial curve, poor fit]

## Cc1cc(/C=C(\C#N)C(=O)O)c(C)n1CC1CCCO1 (configuration not stated)
  cell number change: -33.1%
[1]
  AC50: 23.1 µM [falling, single point]
[2]
  AC50: 20.6 µM [falling, single point]

## CCOC(=O)NC(=O)/C(C#N)=N/Nc1ccc(F)cc1
  cell number change: -65.6%
[1]
  AC50: 25.9 µM [falling, partial curve]
[2]
  AC50: 16.4 µM [falling, partial curve]

## COC(=O)c1cc(NC(=O)c2cc(C(C)(C)C)nn2Cc2cccc(C)c2)ccc1N1CCOCC1
  cell number change: -31.1%
[1]
  AC50: 25.9 µM [falling, single point]
[2]
  AC50: 23.1 µM [falling, single point]

## COc1ccc(-c2nnn(CC(=O)Nc3ccc4c(c3)OCCO4)n2)cc1OC
  cell number change: 3.16%

## COc1ccc(Oc2nnc(-c3ccccc3)cc2C#N)cc1
  cell number change: 17.6%
[2]
  AC50: 1.64 µM [rising, partial curve]

## COCCn1c(Cc2ccccc2)nnc1SCC(=O)NC(C)(C)C
  cell number change: -14.5%
[2]
  AC50: 0.0326 µM [falling, full curve, poor fit]

## CC(=O)N1CCC(C(=O)c2ccc(Cl)cc2)CC1
  cell number change: -3.98%

## COc1ccc(NS(=O)(=O)c2ccc3nc(COc4ccc5ccccc5c4)[nH]c3c2)cc1
[2]
  AC50: 0.326 µM [falling, full curve, poor fit]

## COCC(C)n1c(SCc2ccc(C(=O)OC)o2)nc2ccccc2c1=O (configuration not stated)
  cell number change: 16.7%
[2]
  AC50: 3.66 µM [rising, single point]

## Cc1onc(-c2ccccc2)c1C(=O)N1CCN(S(=O)(=O)c2ccccc2Br)CC1
  cell number change: 14.5%
[2]
  AC50: 0.731 µM [rising, full curve, poor fit]

## CCOC(=O)NC(Nc1nnc(C)s1)(C(=O)OCC)C(F)(F)F (configuration not stated)
  cell number change: -11.3%

## CCOc1ccc(/C=N/NC(=O)C2CC2)cc1OC
  cell number change: 15.8%
[1]
  AC50: 0.146 µM [rising, full curve, poor fit]
[2]
  AC50: 6.51 µM [rising, single point]

## CCCc1ccc2oc(C(=O)N(C)CCn3ccnc3C)c(C)c2c1
  cell number change: 13.7%
[2]
  AC50: 0.146 µM [rising, full curve]

## CCCCCCOC(=O)C1=C(C)NC(=O)NC1c1ccc2c(c1)OCO2 (configuration not stated)
  cell number change: -19.2%

## Cc1cc(NS(=O)(=O)c2ccc(NC(=O)COc3cc(C)c(Cl)c(C)c3)cc2)no1
  cell number change: -2.4%

## C/C(O)=c1/ccc2cccc3nc(C)nc1c23
  cell number change: 2.22%
[2]
  AC50: 0.82 µM [falling, full curve, poor fit]

## CCc1ccccc1NC(=O)CSC1=C(C#N)C(c2ccc(O)c(OC)c2)C2=C(CCCC2=O)N1 (configuration not stated)
  cell number change: -27.9%
[2]
  AC50: 1.46 µM [rising, partial curve]

## Cn1nnnc1SCC(=O)Nc1cc(C(F)(F)F)ccc1N1CCOCC1
  cell number change: 39.6%
[1]
  AC50: 0.00461 µM [rising, full curve, poor fit]

## O=C(CSc1nnc(-c2n[nH]c3ccccc23)n1-c1ccccc1)Nc1ccccc1Cl
  cell number change: 18.2%
[2]
  AC50: 2.59 µM [rising, full curve]

## COc1ccc(-c2nc(CSCC(=O)NCc3ccc4c(c3)OCO4)c(C)o2)cc1
  cell number change: 61.8%
[1]
  AC50: 1.16 µM [rising, partial curve]
[2]
  AC50: 1.3 µM [rising, full curve]

## CC(=O)N1c2ccccc2C(C)CC12CCCCC2 (configuration not stated)
  cell number change: -41.8%
[1]
  AC50: 25.9 µM [falling, partial curve, poor fit]
[2]
  AC50: 29.1 µM [falling, single point]

## COc1ccccc1NC(=O)COc1ccc(CO)cc1Cl
  cell number change: -19.5%
[1]
  AC50: 0.103 µM [falling, full curve, poor fit]
[2]
  AC50: 3.26 µM [falling, single point]

From PubChem BioAssay AID2685 (National Center for Advancing Translational Sciences (NCATS), 2010)
